Assay [1] deals with LYAR (human homologue of mouse Ly-1 antibody reactive clone) (human (endogenous in K562)) (UniProt Q9NX58). Nature of the assay: co-IP; endogenous proteins from K562 cellular extract, immunoprecipitation with anti-LYAR antibody, western blot. (A western blot detects proteins with antibodies after separation by electrophoresis.)
The target of the next assay is GST-PRMT5 fusion protein (UniProt O14744). Kind of assay: pull-down; purified GST-PRMT5 pre-adsorbed to glutathione-sepharose beads, incubated with 35S-labeled in vitro transcribed and translated LYAR; autoradiography after SDS-PAGE; only the target purified.
The target in assay [2] is GST fusion protein containing amino acids 154-239 of LYAR (human) (UniProt Q9NX58). Kind of assay: pull-down; purified GST fusions of LYAR fragments pre-adsorbed to glutathione-sepharose beads, incubated with PRMT5-overexpressing K562 cell lysate; western blot with anti-PRMT5 antibody; only the target purified.

Protein sequences, listed by entry. Tags and fused reporters are not part of them. Residues count along the entry.
GST fusion protein containing amino acids 154-239 of LYAR (Q9NX58, residues 154-239): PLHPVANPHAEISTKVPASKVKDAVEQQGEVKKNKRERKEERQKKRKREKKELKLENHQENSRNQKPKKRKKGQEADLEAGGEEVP

These are yes or no findings as the source states them, for the method shown. Binding seen in cells or lysates may run through a third protein. Some binding calls cover weakened binding; strength is not graded here.

As to “PRMT5 (endogenous) (from UniProt O14744 1-637) (enzyme)”, the binding entry in assay [1] is listed as “binds”.

For the substance “35S-labeled in vitro transcribed and translated LYAR (from UniProt Q9NX58 1-379)”, the binding result in the assay with GST-PRMT5 fusion protein is “binds”.

As to “Flag-tagged PRMT5 (from UniProt O14744 1-637) (enzyme)”, the binding result in assay [2] is reported as “binds”.

For the origin of these results see publication PMC4150809.
